Results are given in words; binding and its absence hold for the method and conditions named. Some results given as binding are weak or reduced against the parent protein; the word gives no strength.
Biological target: BRG1 (encoded by SMARCA4) (human (endogenous in HEK293T, RH4, RH30)) (UniProt P51532)
Test: SEC; 100 µg nuclear extract of RH4 or RH30 cells on BioSep SEC 300 (7.8 x 300 mm), 150 mM NaPO4 pH 7.2, 350 ul/minute; fractions western blotted for BRG1, BAF47 or PBRM1; fractions 15/16 are >1 megadalton

The chains behind the UniProt entries cited, without tags or fusion partners.
UniProt P51532: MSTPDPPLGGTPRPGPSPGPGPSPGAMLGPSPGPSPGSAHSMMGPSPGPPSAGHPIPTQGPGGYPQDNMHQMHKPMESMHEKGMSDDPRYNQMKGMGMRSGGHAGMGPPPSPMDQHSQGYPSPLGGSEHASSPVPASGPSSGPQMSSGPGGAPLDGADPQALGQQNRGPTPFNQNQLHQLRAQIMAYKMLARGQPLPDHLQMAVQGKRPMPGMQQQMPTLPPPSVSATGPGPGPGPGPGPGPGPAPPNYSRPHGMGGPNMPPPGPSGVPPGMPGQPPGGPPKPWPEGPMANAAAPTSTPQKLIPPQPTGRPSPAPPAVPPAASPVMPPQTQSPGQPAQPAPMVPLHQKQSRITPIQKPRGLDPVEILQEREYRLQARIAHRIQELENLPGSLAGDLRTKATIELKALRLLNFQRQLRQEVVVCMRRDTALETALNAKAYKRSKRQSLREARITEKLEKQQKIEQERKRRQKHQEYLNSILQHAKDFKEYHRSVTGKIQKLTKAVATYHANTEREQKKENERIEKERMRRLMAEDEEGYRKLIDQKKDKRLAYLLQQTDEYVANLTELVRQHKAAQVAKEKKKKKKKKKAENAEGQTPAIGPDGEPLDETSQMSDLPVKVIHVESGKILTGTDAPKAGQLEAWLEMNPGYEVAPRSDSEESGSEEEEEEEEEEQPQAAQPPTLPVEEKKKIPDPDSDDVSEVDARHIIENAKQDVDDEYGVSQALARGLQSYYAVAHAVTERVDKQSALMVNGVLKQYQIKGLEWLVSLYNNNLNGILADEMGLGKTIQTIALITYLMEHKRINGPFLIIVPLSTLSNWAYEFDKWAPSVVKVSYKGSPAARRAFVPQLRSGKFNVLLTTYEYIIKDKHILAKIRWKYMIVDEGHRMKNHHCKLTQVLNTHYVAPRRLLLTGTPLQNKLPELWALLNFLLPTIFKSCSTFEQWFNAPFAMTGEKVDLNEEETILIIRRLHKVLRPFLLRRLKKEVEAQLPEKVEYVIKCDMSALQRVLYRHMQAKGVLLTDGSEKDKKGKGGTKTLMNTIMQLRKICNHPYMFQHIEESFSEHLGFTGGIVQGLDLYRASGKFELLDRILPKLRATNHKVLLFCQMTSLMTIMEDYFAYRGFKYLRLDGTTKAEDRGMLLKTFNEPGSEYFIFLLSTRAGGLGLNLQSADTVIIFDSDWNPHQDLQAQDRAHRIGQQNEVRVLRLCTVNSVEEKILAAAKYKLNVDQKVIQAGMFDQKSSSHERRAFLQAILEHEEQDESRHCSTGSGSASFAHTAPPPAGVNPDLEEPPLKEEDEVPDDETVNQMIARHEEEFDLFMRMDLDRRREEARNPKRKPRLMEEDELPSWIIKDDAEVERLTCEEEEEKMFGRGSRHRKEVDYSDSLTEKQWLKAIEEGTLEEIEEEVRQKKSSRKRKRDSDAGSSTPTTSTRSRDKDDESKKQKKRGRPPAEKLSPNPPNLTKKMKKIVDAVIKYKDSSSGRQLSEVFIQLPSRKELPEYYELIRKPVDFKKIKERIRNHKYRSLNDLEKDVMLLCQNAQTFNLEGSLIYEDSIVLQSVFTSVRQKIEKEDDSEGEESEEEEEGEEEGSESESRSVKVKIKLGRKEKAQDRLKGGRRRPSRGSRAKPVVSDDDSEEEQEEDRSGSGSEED
UniProt Q12824: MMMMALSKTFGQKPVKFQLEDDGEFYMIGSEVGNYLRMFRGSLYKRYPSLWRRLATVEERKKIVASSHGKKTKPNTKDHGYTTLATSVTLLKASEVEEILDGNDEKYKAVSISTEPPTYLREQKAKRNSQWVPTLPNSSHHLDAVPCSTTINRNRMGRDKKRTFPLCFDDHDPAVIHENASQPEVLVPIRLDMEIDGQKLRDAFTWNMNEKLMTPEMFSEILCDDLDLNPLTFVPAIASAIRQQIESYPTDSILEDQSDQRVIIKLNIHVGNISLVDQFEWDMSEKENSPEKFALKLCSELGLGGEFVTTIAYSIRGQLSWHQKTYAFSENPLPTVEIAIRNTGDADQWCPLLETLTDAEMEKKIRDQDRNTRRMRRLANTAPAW

- binding: binds
Substance: BAF47 (encoded by SMARCB1) (from UniProt Q12824 1-385)
